This is an account of results in US20230098202A1 (priority 2020, published 2023).

The subject of one test is Rhizoctonia solani. The format is cell-based.
The subject of test [1] is Puccinia sorghi. Format: cell-based.
Test [2] deals with Botrytis cinerea. The note with it: tomato plants, greenhouse, preventative spraying, Formulations 1 and 2.
Test [3] deals with Botrytis cinerea.
The subject of test [4] is Phytophthora infestans. The format is cell-based. The note with it: Phytophthora infestans on tomato leaf discs; activity grade x repeats/12 x100.
A further test deals with Pythium aphanidermatum. Format: cell-based.
Test [5] deals with Puccinia sorghi. Briefly: In planta validation: Puccinia sorghi infection of corn seedlings. The format is in vivo, Puccinia sorghi on corn. The note with it: controlled growth conditions, growth rooms, spraying. From the text:
Protocol name: Puccinia sorghi infection of corn seedlings test General description: Inoculation on corn, collection, Puccinia sorghi spores' suspension preparation and 1-phenyl-tetralin compounds 1 or 3 bioactivity evaluation against Puccinia sorghi.
• 1) Use: 120×80×80 mm pots, standard garden soil with fertilizer and corn seeds of a rust sensitive variety. • 2) Put pots in a tray and fill the pots with the soil to the top. • 3) Make a small grove for the seeds. • 4) Plant about 10 seeds of corn in each pot. • 5) Cover the seeds with additional soil. • 6) Add water into the tray—about 100 ml for each pot (fill the tray 3 times). • 7) Grow the corn for 8 days in growth room at 22° C. (until the second leaf is emerged). B. Preparation of Spore Suspension [from Corn Leaves] for Inoculation • 1) Insert 20 infected corn leaves with spores into a sterile 50-ml tube. • 2) Add 50 ml of cold 0.05% Tween® 20 solution. • 3) Insert the tube into a sealed, ice cold plastic box. • 4) Shake the box using a shaker for 15 min at 3000 RPM. • 5) Transfer the suspension (without the leaves) into a clean sterile 50-ml tube. • 6) Filter the spore suspension through 16 layers of gauze into another sterile 50-ml tube. • 7) Keep the tube with the spore suspension on ice. • 8) Wash and concentrate the spores on a 5-micron membrane filter. […]

In test [6] the test system is Phytophthora infestans. The note with it: tomato plants, greenhouse, spraying.
A further test has as its system Alternaria solani. The note with it: tomato plants, greenhouse, preventative spraying, Formulation 2.

Take `CN[C@H]1CCC(c2ccc(Cl)c(Cl)c2)c2ccccc21.Cl` (stereo in doubt) [Compound 3, (1S,4R)-4-(3,4-dichlorophenyl)-N-methyl-1,2,3,4-tetrahydronaphthalen-1-aminium chloride]: the “Relative Activity value (%)” value in the test on Fusarium oxysporum was found to be 16%; in the test with Alternaria alternata it was 100%; with Rhizoctonia solani, 25%; in the test with Puccinia sorghi [1], 100%; in the test with Botrytis cinerea [3], 100%; in the test on Phytophthora infestans [4], 100%. Further, the “Relative Activity value (%)” value in the test with Pythium aphanidermatum was found to be 10%. The “efficacy in controlling Botrytis infection” value in the test with Botrytis cinerea [2] is “up to 100%”. Besides, the “efficacy in preventing and controlling Puccinia sorghi in corn plants (in words)” value in the test on Puccinia sorghi [5] is on record as “very good efficacy”. Also, in the test on Phytophthora infestans [6], the “efficacy in controlling Phytophthora infection” value is recorded as “up to 100%”. Moreover, the “efficacy in controlling Alternaria infection” value with Alternaria solani was “up to 75.8%”.
